# Values from PubChem BioAssay AID602196 (INSERM, 2012).
# Screen: 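Knock-downs that protect lung cancer cells from cisplatin or sensitise them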
# System: human A549 lung cancer cells
# Reagent: siRNA pair against human genes
# Duration: 48 h transfection before cisplatin; time from cisplatin to read-out not stated
# Treatment: cisplatin at a dose killing half of control-siRNA cells; exact dose and duration not given
# Read-out: 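Cisplatin cell death as a shift from the 50% death seen with control siRNA; siRNAs toxic or growth-blocking alone scored 0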
# Direction: two-siRNA summed score (-2 to +2): higher = both siRNAs protect from cisplatin killing; -2 means both sensitise; mean protection from cisplatin (shift in death) and protection from cisplatin (shift in death), siRNA C: higher = protection from cisplatin killing
# Rule for the call: 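Each siRNA scores 0 if harmful alone by LDH or WST-1, otherwise +1 if it reduces and -1 if it increases cisplatin killing; a gene is active when both siRNAs agree (sum +2 or -2)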
# Meaning of the calls: active = both siRNAs shift cisplatin killing the same way; inactive = no consistent shift, or siRNA harmful alone
# The deposit covers about 23,000 reagents; below is a random part of them. In the full data, 455 (2%) got an active call. 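Active includes both protection and sensitisation; some change values fall well beyond the stated -50 to +50 range.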 Entries without a mark were called inactive. Reagents against one gene are numbered here. Further read-outs or replicates are left out here. Not stated in the record: the amount of reagent.
target,reagent no.,two-siRNA summed score (-2 to +2),mean protection from cisplatin (shift in death) (%),"protection from cisplatin (shift in death), siRNA C (%)"
KCNK3 (potassium two pore domain channel subfamily K member 3),1,0,-6,-9.2
PKLR (pyruvate kinase L/R),1,0,-4.3,-9.1
PDGFRA (platelet derived growth factor receptor alpha),1,-1,-19,-18.7
USP32P2 (ubiquitin specific peptidase 32 pseudogene 2),1,1,6.1,32.1
HSPB6 (heat shock protein family B (small) member 6),1,1,11.4,15.3
APOL4 (apolipoprotein L4),1,0,6.4,13.2
FRG1 (FSHD region gene 1),1,1,9.7,1.8
CLUHP3 (CLUH pseudogene 3),1,0,1.5,-8.3
LMF2 (lipase maturation factor 2),1,0,6,8.3
SAMD10 (sterile alpha motif domain containing 10),1,0,11.1,7.2
TAB3 (TGF-beta activated kinase 1 (MAP3K7) binding protein 3),1,0,8.2,28.7
SLC5A1,1,0,3.2,3.7
PPARGC1B (PPARG coactivator 1 beta),1,0,15.2,14.2
ITPRID1 (ITPR interacting domain containing 1),1,0,14.1,2.2
AURKAIP1 (aurora kinase A interacting protein 1),1,1,9.5,4.5
NPSR1-AS1 (NPSR1 antisense RNA 1),1,0,4.2,12.4
LOC285194,1,0,7.7,5.7
ABCD4 (ATP binding cassette subfamily D member 4),1,0,-6.9,-3.1
PPP1R26 (protein phosphatase 1 regulatory subunit 26),1,0,14.7,19.9
AP3M1 (adaptor related protein complex 3 subunit mu 1),1,0,5.1,1.7
SDHAP2 (SDHA pseudogene 2),1,1,17,19.6
SLC2A9,1,0,-3.6,2.8
DDX54 (DEAD-box helicase 54),1,1,10.5,-1.3
NRXN1 (neurexin 1),1,0,-14.7,-5.7
LOC343474,1,0,16,18.6

The list goes on (2 carried over from the part before).
target,reagent no.,two-siRNA summed score (-2 to +2),mean protection from cisplatin (shift in death) (%),"protection from cisplatin (shift in death), siRNA C (%)"
NRXN1 (neurexin 1),1,0,-14.7,-5.7
LOC343474,1,0,16,18.6
GUSBP14 (GUSB pseudogene 14),1,0,-4.5,1.7
GUSBP14 (GUSB pseudogene 14),2,1,8.6,0.1
USP7P1 (USP7 pseudogene 1),1,0,10.3,11.8
OR10Z1 (olfactory receptor family 10 subfamily Z member 1),1,0,3,3.2
KRTAP12-1 (keratin associated protein 12-1),1,0,-2.5,0
GJB4 (gap junction protein beta 4),1,0,8.4,4.4
LINC01139 (long independently transcribed non-coding RNA 1139),1,0,-3,-10.5
LINC02649 (long independently transcribed non-coding RNA 2649),1,0,6.3,9.2
RGCC (regulator of cell cycle),1,0,0.2,-8.3
PBDC1 (polysaccharide biosynthesis domain containing 1),1,0,7.8,25.7
CRHR1 (corticotropin releasing hormone receptor 1),1,-2 (active),-18.2,-21.9
KANSL1L (KAT8 regulatory NSL complex subunit 1 like),1,0,-3,-4.6
DCAF7 (DDB1 and CUL4 associated factor 7),1,0,8.2,10.4
NOTCH3 (notch receptor 3),1,-2 (active),-23.2,-25.8
